This experiment addresses T1, human lysozyme (human), P61626.
T1 chain: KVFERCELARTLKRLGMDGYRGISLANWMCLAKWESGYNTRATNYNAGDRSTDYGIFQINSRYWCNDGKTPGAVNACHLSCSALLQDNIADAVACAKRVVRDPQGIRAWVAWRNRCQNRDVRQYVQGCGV
Briefly: cross-linking; PICUP: 20 μM protein in 10 mM MES/NaOH, 0.02% NaN3, pH 5.5, with Ru(bpy) and APS, 450 nm LED, lighting times 1-4096 ms; protein freshly isolated by SEC and kept 0.5-1 h on ice; read by SDS-PAGE (InstantBlue or silver stain); also with 0-20 μM ThT; both purified. As to conditions: remark: other sources report otherwise.

These are yes or no findings as the source states them, for the method shown.

B1: human lysozyme, P61626 19-148 (enzyme)
chain: T1 chain
On to B1, for which the binding result is on record as “no binding (tested: 20 μM)”.

The values are drawn from article PMC10485903.
